Laboratory results reported in PubChem BioAssay AID504327 (National Center for Advancing Translational Sciences (NCATS), 2011).
Screen size: about 390,000 compounds; about 820 (0.21%) were called active. This list was built around the results that the source calls inconclusive (neither active nor inactive); the mix of calls is not that of the screen. Calls come from the whole dose curve; as a rule, active = well fitted inhibition curve with a large enough effect; inconclusive = small, poorly fitted or top-dose-only effect, or another doubt; inactive = no such curve, though single readings can be large or run the other way. Potencies of inconclusive entries are doubtful fits and often do not repeat.

Chains of the proteins cited; added tags and fusions are not shown.
UniProt Q92830, whole entry, looked up: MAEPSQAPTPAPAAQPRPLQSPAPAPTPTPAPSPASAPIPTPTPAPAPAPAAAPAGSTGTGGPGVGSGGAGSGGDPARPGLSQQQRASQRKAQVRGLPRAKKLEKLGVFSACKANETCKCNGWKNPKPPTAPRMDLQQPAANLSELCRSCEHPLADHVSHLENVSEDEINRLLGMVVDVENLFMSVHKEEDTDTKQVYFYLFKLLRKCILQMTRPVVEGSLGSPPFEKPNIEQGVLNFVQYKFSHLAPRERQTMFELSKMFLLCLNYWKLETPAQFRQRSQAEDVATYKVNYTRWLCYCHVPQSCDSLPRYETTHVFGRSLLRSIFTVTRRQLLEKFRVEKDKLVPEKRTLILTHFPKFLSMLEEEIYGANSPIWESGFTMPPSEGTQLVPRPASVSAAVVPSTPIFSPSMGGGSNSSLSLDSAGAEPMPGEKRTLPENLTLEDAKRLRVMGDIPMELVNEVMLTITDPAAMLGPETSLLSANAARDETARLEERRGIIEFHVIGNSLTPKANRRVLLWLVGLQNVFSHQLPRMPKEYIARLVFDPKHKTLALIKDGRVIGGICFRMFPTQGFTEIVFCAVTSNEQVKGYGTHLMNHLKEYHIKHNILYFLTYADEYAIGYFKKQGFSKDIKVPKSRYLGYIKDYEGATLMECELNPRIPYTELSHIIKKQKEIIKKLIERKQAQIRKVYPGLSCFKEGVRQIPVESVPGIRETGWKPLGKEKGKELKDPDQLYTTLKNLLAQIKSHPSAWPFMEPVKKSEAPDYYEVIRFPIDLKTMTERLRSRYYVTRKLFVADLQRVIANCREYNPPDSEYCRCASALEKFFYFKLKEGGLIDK

Each molecule was assayed against Histone acetyltransferase KAT2A (Homo sapiens) (UniProt Q92830) (assay: qHTS Assay for Inhibitors of GCN5L2). Settings: GCN5L2 HAT assay, ThioGlo1 CoA-SH fluorescence; activity change, negative = inhibition: at 58.9 µM (top of the series) unless noted.
Method in brief: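 Preincubate 20nM GCN5L2 with compound 15 min, RT → add 50uM ThioGlo1 + 75uM H3(1-25) + 70uM acetyl-CoA → read fluorescence 0 and 20 min. Primary qHTS; fluorescent artifacts likely.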
% is set by controls: 0 for no effect and ±100 for the full control effect; potency is the fitted concentration of half-maximal effect.

Which Potency does the source give for `Cc1cc(NC(=O)N2CCC(CN3CCOCC3)CC2)ccc1Br` here?
The Potency was “inactive”.

`CC(C)Oc1ccc(C(=O)Nc2ccc(-c3nc4ccccc4s3)cc2)cc1` was tested. Which Potency did it give?
Its Potency is “inactive”.

With `CC(C)N(CCCNC(=O)C1CCN(C(=O)c2cc3sccc3n2C)CC1)Cc1ccccc1` as the molecule, how does the Potency read?
Its Potency is inconclusive: 7.08 µM [inhibitor, single point].

Which Potency does the source give for `Cc1cnc(C)c(N2CCN(Cc3nc(-c4cccc(F)c4F)oc3C)CC2)n1` here?
The Potency was inconclusive: 39.8 µM [inhibitor, single point].

Which activity change, negative = inhibition does the source give for `CCOC(=O)c1ccc(N2C(=O)CC(N3CCC(O)(c4ccc(Br)cc4)CC3)C2=O)cc1` (stereo not drawn) here?
Its activity change, negative = inhibition is inconclusive: -94.2% [inhibitor] [at 0.501 µM].

`CCOC(=O)c1c(NC(=O)Cc2ccccc2)sc2c1CCN(CC)C2` was tested. Which Potency did it give?
The Potency was inconclusive: 0.794 µM [inhibitor, full curve].

For `Cc1ccc(C)c(N2CCN(C(=O)c3cc4sccc4n3C)CC2)c1`, which Potency is on record?
The Potency was inconclusive: 8.91 µM [inhibitor, single point].

Which Potency does the source give for `O=C(O)c1ccccc1NCc1ccco1` here?
Its Potency is inconclusive: 7.08 µM [inhibitor, single point].

Which Potency does the source give for `Cc1cc(C)cc(NS(=O)(=O)c2ccc3c(c2)C(C)(C)C(=O)N3C)c1` here?
The Potency was inconclusive: 0.891 µM [inhibitor, single point].

Which Potency does the source give for `COc1ccc(OC)c(NC(=S)NCc2ccc(S(N)(=O)=O)cc2)c1` here?
The Potency was inconclusive: 0.141 µM [inhibitor, partial curve, poor fit].

Which Potency does the source give for `COc1ccc(NC(=S)Nc2ccc(OC)cc2OC)c(OC)c1` here?
Its Potency is “inactive”.

Which Potency does the source give for `COc1cccc(=O)c2c(C)n(-c3ccc(C(=O)O)cc3)c(C)c12` here?
The Potency was “inactive”.

With `O=C(Cn1nc(C(=O)O)c2ccccc2c1=O)Nc1ccc2c(c1)C(=O)c1ccccc1C2=O` as the molecule, how does the Potency read?
The Potency was inconclusive: 7.08 µM [inhibitor, partial curve].

`NC(=O)C1CCN(C(=O)CCc2nc3ccccc3c(=O)[nH]2)CC1` was tested. Which Potency did it give?
Its Potency is inconclusive: 39.8 µM [inhibitor, single point].

Which Potency does the source give for `O=C(O)C1=CC[C@@H](c2ccc(Cl)cc2)N(S(=O)(=O)c2ccc(Cl)cc2)[C@H]1c1ccccc1` here?
The Potency was inconclusive: 35.5 µM [inhibitor, single point].

`CCOc1ccc(C(=O)Nc2ccc(NC(=O)c3ccco3)c(Cl)c2)cc1Cl` was tested. Which activity change, negative = inhibition did it give?
Its activity change, negative = inhibition is inconclusive: -31.9% [inhibitor] [at 0.501 µM].

For `COc1ccc(/C=N/NC(=O)c2cc3cc(OC)c(OC)cc3[nH]2)cc1`, which Potency is on record?
The Potency was inconclusive: 1 µM [inhibitor, full curve, poor fit].

How did the Potency turn out when `Cc1cc2nc(C)n(CCCNC(=O)Nc3ccc(C#N)cc3)c2cc1C` was run?
Its Potency is inconclusive: 39.8 µM [inhibitor, single point].

Which Potency does the source give for `Cc1ccccc1-n1cc(CNC(=O)CCc2nnc(CCc3ccccc3)o2)cn1` here?
Its Potency is inconclusive: 31.6 µM [inhibitor, single point].

Which Potency does the source give for `COc1ccc(-c2cc(=O)c3c(OC)c(OC)c(OC)c(OC)c3o2)cc1OC` here?
Its Potency is inconclusive: 35.5 µM [inhibitor, partial curve].

With `CC(OC(=O)CCCNC(=O)c1ccc(Cl)cc1)C(=O)N(C)Cc1ccccc1` (stereo not drawn) as the molecule, how does the Potency read?
Its Potency is inconclusive: 20 µM [inhibitor, single point].

How did the Potency turn out when `Cc1oc(-c2cccc(C(F)(F)F)c2)nc1CN1CCC[C@H]1CO` was run?
The Potency was inconclusive: 0.1 µM [inhibitor, partial curve, poor fit].

For `CC[C@@H]1C(c2cccc(C)c2)=NN(c2ccccc2)[C@H]1C(=O)N1CCOC1=O`, which Potency is on record?
Its Potency is inconclusive: 39.8 µM [inhibitor, partial curve].

For `Cc1cc(CC(=O)O)c(C)n1-c1ccc(Cl)cc1`, which Potency is on record?
Its Potency is inconclusive: 22.4 µM [inhibitor, single point].

How did the Potency turn out when `CC(C)c1cc(=O)oc2c3c4c(cc12)CCCN4CCC3` was run?
Its Potency is inconclusive: 28.2 µM [inhibitor, single point].

`O=c1oc(-c2ccccc2)nc2sc3c(c12)CCC3` was tested. Which Potency did it give?
The Potency was inconclusive: 11.2 µM [inhibitor, partial curve].

How did the Potency turn out when `Cc1noc(C)c1S(=O)(=O)Nc1ccc2c(c1)CC(=O)N([C@H](C)CO)C[C@H](C)[C@@H](CN(C)CC1CC1)O2` was run?
The Potency was “inactive”.

With `N=C1/C(=C/c2ccc(Br)o2)C(=O)N=C2SC(CC(=O)N3CCCC3)=NN12` as the molecule, how does the Potency read?
Its Potency is inconclusive: 39.8 µM [inhibitor, single point].

With `CCCCNc1c(-c2ccc(-c3ccc(C(C)=O)cc3)c(OC)c2)nc2cnccn12` as the molecule, how does the Potency read?
Its Potency is inconclusive: 14.1 µM [inhibitor, partial curve].

`N/C(=N\OC(=O)CCc1ccccc1)c1ccc(Br)cc1` was tested. Which Potency did it give?
Its Potency is inconclusive: 31.6 µM [inhibitor, single point].

With `Nc1ncnc(N2CCc3ccccc32)c1[N+](=O)[O-]` as the molecule, how does the Potency read?
Its Potency is “inactive”.

`CN(C)C(=O)COC(=O)c1ccccc1NC(=O)c1ccco1` was tested. Which Potency did it give?
Its Potency is “inactive”.

How did the Potency turn out when `COc1cc(/C=N/NC(=O)CNC(=O)c2ccccc2)ccc1OC(=O)c1cccs1` was run?
Its Potency is inconclusive: 0.891 µM [inhibitor, full curve, poor fit].

How did the activity change, negative = inhibition turn out when `CCc1nnc(NC(=O)CCc2ccc(C)o2)s1` was run?
Its activity change, negative = inhibition is inconclusive: -99.9% [inhibitor] [at 0.501 µM].

Which Potency does the source give for `CCOC(=O)C1CCN(C(=O)CCC(=O)NNc2nc3ccccc3c3nc(C)nn23)CC1` here?
The Potency was “inactive”.

For `Cc1ccc(OCc2cc(C(=O)NC(C)Cc3cccc(C)n3)no2)cn1` (stereo not drawn), which Potency is on record?
The Potency was inconclusive: 0.794 µM [inhibitor, full curve].

For `COc1cc(NS(=O)(=O)c2ccc(NC(=O)COc3ccccc3Cl)cc2)nc(OC)n1`, which activity change, negative = inhibition is on record?
The activity change, negative = inhibition was inconclusive: -93.7% [inhibitor] [at 0.501 µM].

With `Cc1cccc(OCC(=O)NC2CCCC2)c1` as the molecule, how does the Potency read?
Its Potency is “inactive”.

Which Potency does the source give for `Cc1ccsc1C(=O)OCC(=O)NC1CCS(=O)(=O)C1` (stereo not drawn) here?
Its Potency is “inactive”.

`CC(C)c1nnc(NC(=O)CCS(=O)(=O)c2nc(-c3cccs3)cc(C(F)(F)F)n2)s1` was tested. Which Potency did it give?
Its Potency is “inactive”.

How did the Potency turn out when `Cc1ccc(O)c(CP(=O)(c2ccccc2)c2ccccc2)c1` was run?
The Potency was “inactive”.

With `O=C(O)CCn1ncc2ccccc2c1=O` as the molecule, how does the Potency read?
The Potency was inconclusive: 39.8 µM [inhibitor, single point].

`COc1ccccc1NC(=O)CCN1C(=O)/C(=C\c2cc(OC)c(OC)c(OC)c2)SC1=S` was tested. Which Potency did it give?
The Potency was inconclusive: 0.141 µM [inhibitor, full curve, poor fit].
